According to PMC6983933:
Changes are numbered by the printed parent chain. In names and notes the source's numbering stands. Results are given in words; binding and its absence hold for the method and conditions named. For some assays here: Binding seen in cells or lysates may run through a third protein. Some entries that bind do so weakly or less than the wild type. Sequences can lack the tags named with a protein. Blank lines part the entries; values can stand above or below the molecule they belong to.

Protein sequences, listed by entry. Tags and fused reporters are not part of them.
UniProt Q96CV9: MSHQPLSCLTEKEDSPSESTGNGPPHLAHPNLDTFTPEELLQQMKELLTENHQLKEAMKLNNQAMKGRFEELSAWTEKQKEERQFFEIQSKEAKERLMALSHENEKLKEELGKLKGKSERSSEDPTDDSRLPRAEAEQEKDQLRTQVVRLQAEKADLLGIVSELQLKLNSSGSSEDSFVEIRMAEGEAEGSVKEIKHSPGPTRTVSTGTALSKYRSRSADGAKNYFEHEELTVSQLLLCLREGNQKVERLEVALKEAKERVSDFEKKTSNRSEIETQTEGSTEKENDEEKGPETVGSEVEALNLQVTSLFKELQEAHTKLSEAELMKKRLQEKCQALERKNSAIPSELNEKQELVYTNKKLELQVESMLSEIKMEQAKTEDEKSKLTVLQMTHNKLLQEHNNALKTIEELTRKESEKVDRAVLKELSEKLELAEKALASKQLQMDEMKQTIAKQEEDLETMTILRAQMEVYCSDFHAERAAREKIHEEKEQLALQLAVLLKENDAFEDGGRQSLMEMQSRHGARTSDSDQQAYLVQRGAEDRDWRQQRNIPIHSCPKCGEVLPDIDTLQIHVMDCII

Tests used:
[1] = molecular target: T1, HA-tagged TBK1 wild-type (TANK binding kinase 1) (human) (UniProt Q9UHD2); experiment: co-IP; HEK293T cotransfected with HA-TBK1 (WT or mutant) and FLAG-OPTN WT, 48 h; IP buffer 50 mM tris pH 7.4, 150 mM NaCl, 1% Triton-X-100, 100 mM CaCl2; anti-HA tag antibody with Dynabeads Protein G, room temperature 2 h; 6 washes; Western blot (n = 3)
T1 sequence: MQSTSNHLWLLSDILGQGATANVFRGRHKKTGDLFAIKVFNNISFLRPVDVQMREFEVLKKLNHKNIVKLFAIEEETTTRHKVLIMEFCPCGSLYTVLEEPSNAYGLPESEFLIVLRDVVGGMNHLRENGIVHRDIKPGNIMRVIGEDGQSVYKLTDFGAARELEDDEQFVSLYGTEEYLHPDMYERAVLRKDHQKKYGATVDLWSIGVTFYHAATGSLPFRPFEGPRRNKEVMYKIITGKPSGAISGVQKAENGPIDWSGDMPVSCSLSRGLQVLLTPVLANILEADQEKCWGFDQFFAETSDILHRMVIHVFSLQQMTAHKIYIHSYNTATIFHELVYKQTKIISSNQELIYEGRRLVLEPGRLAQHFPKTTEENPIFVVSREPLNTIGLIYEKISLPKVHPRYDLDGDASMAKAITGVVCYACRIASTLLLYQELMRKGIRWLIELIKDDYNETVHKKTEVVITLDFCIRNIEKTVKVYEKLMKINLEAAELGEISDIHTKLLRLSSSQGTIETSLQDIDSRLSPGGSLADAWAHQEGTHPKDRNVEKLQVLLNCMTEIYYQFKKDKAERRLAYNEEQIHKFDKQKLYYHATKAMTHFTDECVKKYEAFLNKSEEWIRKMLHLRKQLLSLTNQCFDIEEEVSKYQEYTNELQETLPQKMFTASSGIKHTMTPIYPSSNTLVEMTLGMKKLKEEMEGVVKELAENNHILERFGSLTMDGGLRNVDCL

[2] = molecular target: T2, HA-tagged TBK1 p.C471Y (human) (UniProt Q9UHD2); experiment: as above
T2 sequence: T1 sequence with C471Y

[3] = molecular target: T3, HA-tagged TBK1 wild-type (TANK binding kinase 1) (human), Q9UHD2; experiment: native gel or EMSA; lysates of HEK293T transfected with HA-TBK1 WT or mutant, NativePAGE Novex Bis-Tris gel, blot probed with anti-HA tag; dimer and monomer bands (n = 3); details: remark: other sources report otherwise
T3 chain: T1 sequence

[4] = molecular target: HA-tagged TBK1 p.G217R (human) (UniProt Q9UHD2); experiment: as above
[5] = molecular target: T2, HA-tagged TBK1 p.C471Y (human); experiment: as above

Molecule: FLAG-tagged optineurin (OPTN) wild type (from UniProt Q96CV9 1-577)
- binding [1]: binds
- binding [2]: binds

B3: HA-tagged TBK1 p.C471Y (enzyme, UniProt Q9UHD2 1-729)
chain: T1 sequence with C471Y
- binding [5]: binds

Now from value to molecule:

- binding [3]: binds
B1: HA-tagged TBK1 wild-type (TANK binding kinase 1), Q9UHD2 1-729 (enzyme)
chain: T1 sequence

- binding [4]: binds weakly
B2: HA-tagged TBK1 p.G217R (enzyme, UniProt Q9UHD2 1-729)
chain: T1 sequence with G217R
